Data published in patent publication US20180187263A1, “KITS FOR DIAGNOSTIC DETECTION AND PREVENTION OF FEEDLOT BOVINE RESPIRATORY DISEASE” (Iowa State University Research Foundation, Inc., priority 2017, published 2018).

By UniProt entry, the sequences of proteins in these tests, tags left out. Where a name states a change or a piece, a line headed by the entry shows the natural chain unless it says otherwise.
UniProt Q9TTY5: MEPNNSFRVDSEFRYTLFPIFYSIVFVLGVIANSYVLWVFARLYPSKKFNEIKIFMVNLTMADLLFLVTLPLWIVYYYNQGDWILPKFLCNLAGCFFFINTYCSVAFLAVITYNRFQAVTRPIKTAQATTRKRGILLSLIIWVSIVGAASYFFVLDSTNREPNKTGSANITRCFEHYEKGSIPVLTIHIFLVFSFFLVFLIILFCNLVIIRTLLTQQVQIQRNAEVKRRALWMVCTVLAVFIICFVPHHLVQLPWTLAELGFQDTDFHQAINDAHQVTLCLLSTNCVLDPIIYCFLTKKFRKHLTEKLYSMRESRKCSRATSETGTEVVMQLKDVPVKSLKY

Molecular target: T1, Bovine PAFR (Bos taurus, UniProt Q9TTY5)
T1 construct: expressed in transfected cells; host or cells: BHK cells, transient, lipofectamine, pcDNA3.3
Test: PAF-mediated intracellular calcium accumulation in BHK cells transiently expressing bovine PAFR
Format: cell-based
Conditions: 10 nM PAF; antihistamines 1-100 nM

block of bovine PAFR (PAF-mediated intracellular calcium accumulation), FIG. 12: do not block
Compound: CN1CCC[C@@H]1CCO[C@](C)(c1ccccc1)c1ccc(Cl)cc1 [clemastine]
